At least one compound was matched to its structure with a doubt left. Some entries share one result that the patent states for a list of compounds.
Molecular target: T1, human Nav1.5 channels stably expressed in HEK 293 cells (Homo sapiens, UniProt Q14524)
T1 construct: expressed in transfected cells; host or cells: HEK 293
Test: IonWorks Quattro automated patch-clamp, inactivated state block of Nav1.5 (selectivity)
Format: cell-based
Conditions: IonWorks measurement, both channels in HEK 293 cells
Description: Compounds were tested on human Nav1.7 and Nav1.5 channels stably expressed in HEK 293 cells. […] Cells were sealed on a planar substrate using the Population Patch Plate (PPC) technology. Electrical access was obtained using both nystatin and amphotericin. A double-pulse protocol was used for the determination of IC50 values for inactivated state block. Nav1.7 and Nav1.5 expressing cells were voltage clamped at −100 mV and −110 mV, respectively. A depolarizing prepulse to −10 mV (Nav1.7) or −30 mV (Nav1.5) for 1000 ms followed by a 10 ms repolarization to −100 mV (Nav1.7) or −110 mV (Nav1.5) was given to generate fractional channel inactivation of ˜50%, followed by a 10 ms test pulse to −10 mV (Nav1.7) or −30 mV (Nav1.5) to measure peak current in control conditions and after compound addition. The following recording solutions were used (mM). External: 150 NaCl, 2 CaCl2, 5 KCl, 1 Mg Cl2, 10 HEPES, 12 Dextrose; internal: 120 CsF, 30 CsCl, 10 EGTA, 5 HEPES, 5 NaF, 2 MgCl2.
For all electrophysiology experiments, offline analysis was used to determine percent inhibition as a function of drug concentration. IC50 values were determined by fitting to the Hill equation.

Protein sequences, listed by entry. Tags and fused reporters are not part of them.
UniProt Q14524, whole entry: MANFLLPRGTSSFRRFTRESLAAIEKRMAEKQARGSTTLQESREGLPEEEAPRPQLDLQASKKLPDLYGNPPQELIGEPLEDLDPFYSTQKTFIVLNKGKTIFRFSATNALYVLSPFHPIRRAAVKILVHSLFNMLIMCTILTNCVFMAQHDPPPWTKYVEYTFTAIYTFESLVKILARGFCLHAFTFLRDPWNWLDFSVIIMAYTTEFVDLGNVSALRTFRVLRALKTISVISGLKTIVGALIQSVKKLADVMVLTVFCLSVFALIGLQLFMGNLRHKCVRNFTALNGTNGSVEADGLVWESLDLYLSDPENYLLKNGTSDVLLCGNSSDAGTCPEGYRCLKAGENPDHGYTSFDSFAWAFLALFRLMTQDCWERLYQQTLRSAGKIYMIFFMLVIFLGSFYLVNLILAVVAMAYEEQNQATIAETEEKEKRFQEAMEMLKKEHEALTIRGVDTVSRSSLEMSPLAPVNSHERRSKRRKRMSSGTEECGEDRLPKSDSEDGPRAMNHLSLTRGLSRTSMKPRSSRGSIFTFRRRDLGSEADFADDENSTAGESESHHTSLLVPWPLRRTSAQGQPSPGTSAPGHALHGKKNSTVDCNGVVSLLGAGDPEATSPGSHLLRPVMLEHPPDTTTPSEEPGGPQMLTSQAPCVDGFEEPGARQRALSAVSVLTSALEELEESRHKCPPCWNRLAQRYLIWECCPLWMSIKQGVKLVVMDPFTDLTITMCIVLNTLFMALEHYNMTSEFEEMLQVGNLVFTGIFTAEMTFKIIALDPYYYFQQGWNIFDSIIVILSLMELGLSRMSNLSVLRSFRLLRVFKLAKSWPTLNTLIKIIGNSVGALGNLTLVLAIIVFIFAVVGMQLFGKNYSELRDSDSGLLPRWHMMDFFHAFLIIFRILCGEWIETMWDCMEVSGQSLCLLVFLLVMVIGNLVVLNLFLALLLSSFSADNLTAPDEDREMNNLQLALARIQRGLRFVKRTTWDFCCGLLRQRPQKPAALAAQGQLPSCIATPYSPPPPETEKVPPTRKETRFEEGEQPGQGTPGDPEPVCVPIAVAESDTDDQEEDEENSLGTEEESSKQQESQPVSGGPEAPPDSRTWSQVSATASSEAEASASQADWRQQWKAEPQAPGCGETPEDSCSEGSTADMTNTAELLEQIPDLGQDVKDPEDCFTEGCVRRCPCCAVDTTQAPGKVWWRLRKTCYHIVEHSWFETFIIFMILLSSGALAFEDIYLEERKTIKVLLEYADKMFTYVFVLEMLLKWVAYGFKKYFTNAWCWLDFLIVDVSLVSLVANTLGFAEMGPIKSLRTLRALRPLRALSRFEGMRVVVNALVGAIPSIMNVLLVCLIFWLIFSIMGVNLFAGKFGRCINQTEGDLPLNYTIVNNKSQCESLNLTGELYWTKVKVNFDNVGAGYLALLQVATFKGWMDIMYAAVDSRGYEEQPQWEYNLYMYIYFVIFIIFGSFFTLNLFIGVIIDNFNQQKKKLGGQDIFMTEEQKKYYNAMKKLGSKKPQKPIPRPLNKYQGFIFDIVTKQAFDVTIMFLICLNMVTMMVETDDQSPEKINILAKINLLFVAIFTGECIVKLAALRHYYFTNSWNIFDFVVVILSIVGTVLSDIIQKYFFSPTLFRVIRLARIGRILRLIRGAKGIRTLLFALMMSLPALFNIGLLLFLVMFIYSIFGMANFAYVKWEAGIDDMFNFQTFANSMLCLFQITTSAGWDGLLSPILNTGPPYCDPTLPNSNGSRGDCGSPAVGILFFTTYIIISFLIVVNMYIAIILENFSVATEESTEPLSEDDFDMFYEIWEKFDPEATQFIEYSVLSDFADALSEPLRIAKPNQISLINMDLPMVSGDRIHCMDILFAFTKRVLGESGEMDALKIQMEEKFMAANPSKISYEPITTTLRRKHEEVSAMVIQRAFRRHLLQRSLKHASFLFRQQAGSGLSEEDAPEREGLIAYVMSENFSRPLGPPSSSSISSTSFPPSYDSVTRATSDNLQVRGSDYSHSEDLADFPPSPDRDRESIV

Row | SMILES | ratio of Nav1.7 potency:Nav 1.5 potency
1 | CN[C@@H](CCc1ccccc1)CNc1cc(F)c(S(=O)(=O)Nc2nccs2)cc1Cl [Ex1-21, (S)-5-chloro-2-fluoro-4-((2-(methylamino)-4-phenylbutyl)amino)-N-(thiazol-2-yl)-benzenesulfonamide] | > 165
2 | CN[C@H](CNc1cc(F)c(S(=O)(=O)Nc2ncns2)cc1Cl)Cc1ccccc1 [Ex1-26, (S)-5-chloro-2-fluoro-4-((2-(methylamino)-3-phenylpropyl)amino)-N-(1,2,4-thiadiazol-5-yl)-benzenesulfonamide] | > 165
3 | CN[C@H](CNc1cc(F)c(S(=O)(=O)Nc2ncc(F)s2)cc1Cl)CC1(C(F)(F)F)CC1 [Ex2-14, (S)-5-chloro-2-fluoro-N-(5-fluorothiazol-2-yl)-4-((2-(methylamino)-3-(1-(trifluoromethyl)cyclopropyl)-propyl)amino)benzenesulfonamide] | > 194
4 | CN[C@H](CNc1cc(F)c(S(=O)(=O)Nc2ncc(F)s2)cc1Cl)CC1CCCC1 (single isomer, unassigned) [Ex3-11] | > 300
5 | CN[C@H](CNc1cc(F)c(S(=O)(=O)Nc2nccs2)cc1Cl)Cc1ccc(Br)cc1 [Ex1-25, (S)-4-((3-(4-bromo-phenyl)-2-(methylamino)-propyl)amino)-5-chloro-2-fluoro-N-(thiazol-2-yl)-benzenesulfonamide] | > 300
6 | CN[C@H](CNc1cc(F)c(S(=O)(=O)Nc2nccs2)cc1Cl)Cc1ccccc1 [Ex1-7, (S)-5-chloro-2-fluoro-4-((2-(methylamino)-3-phenylpropyl)amino)-N-(thiazol-2-yl)benzenesulfonamide] | > 165
7 | CN[C@H](CNc1cc(F)c(S(=O)(=O)Nc2nccs2)cc1Cl)Cc1ccc(F)cc1Br [Ex1-32, (S)-4-((3-(2-bromo-4-fluorophenyl)-2-(methyl-amino)propyl)-amino)-5-chloro-2-fluoro-N-(thiazol-2-yl)-benzenesulfonamide] | > 194
8 | CN[C@H](CNc1cc(F)c(S(=O)(=O)Nc2ncc(F)s2)cc1Cl)CC1CC1(Cl)Cl (stereo partly drawn) [Ex2-21, 5-chloro-4-(((2S)-3-(2,2-dichlorocyclopropyl)-2-(methylamino)propyl)amino)-2-fluoro-N-(5-fluorothiazol-2-yl)-benzenesulfonamide] | > 300
9 | CN(C)[C@H](CNc1cc(F)c(S(=O)(=O)Nc2ncc(F)s2)cc1Cl)CC1(C)CC1 [Ex7-3, (S)-5-chloro-4-((2-(dimethylamino)-3-(1-methylcyclopropyl)propyl)amino)-2-fluoro-N-(5-fluorothiazol-2-yl)benzenesulfonamide] | > 220
